Measurements reported in patent publication US20050233413A1, “Neuroprotective polypeptides and methods of use” (priority 2002, published 2005).
No constants are given. Whether binding was seen depends on the method and setting. In cells and extracts the contact can be indirect. Some results given as binding are weak or reduced against the parent protein; the word gives no strength. Where a sequence is shown, tags or fusion partners need not be part of it. Blank lines part the entries; values can stand above or below the binder they belong to.

How the values were obtained:
(His)6-EFLIVIKS-(S7A)HN [1] = target: T1, (His)6-EFLIVIKS-(S7A)HN; test: competition in Ni-bead pull-down; competitor of EF-(S7A)HN-FLAG
T1 sequence (peptide): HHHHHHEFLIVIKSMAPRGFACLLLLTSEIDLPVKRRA

(His)6-HN [2] = target: T2, (His)6-HN; test: competition in Ni-bead pull-down; competitor of HN-FLAG
T2 sequence (peptide): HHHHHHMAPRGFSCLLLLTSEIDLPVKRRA

(His)6-HN [3] = target: T2, (His)6-HN; test: Ni-bead pull-down of distinctly tagged peptides
(His)6-HN [4] = target: T2, (His)6-HN; test: Ni-bead pull-down, anti-FLAG immunoblot
(His)6-EFLIVIKS-(S7A)HN [5] = target: T1, (His)6-EFLIVIKS-(S7A)HN; test: Ni-bead pull-down of distinctly tagged peptides
(His)6-EFLIVIKS-(S7A)HN [6] = target: T1, (His)6-EFLIVIKS-(S7A)HN; test: Ni-bead pull-down, anti-FLAG immunoblot

Binder: EFLIVIKS
binding ((His)6-EFLIVIKS-(S7A)HN [1]): binds

Binder: MAPRGFSCLLLLTGEIDLPVKRRA [(S14G)HN]
binding ((His)6-HN [2]): binds

Binder: EFLIVIKSMAPRGFACLLLLTSEIDLPVKRRADYKDDDDK [EFLIVIKS-(S7A)HN-DYKDDDDK (EF-S7A-FLAG)]
binding ((His)6-EFLIVIKS-(S7A)HN [5]): binds
binding ((His)6-EFLIVIKS-(S7A)HN [6]): binds

Next, values leading:

binding ((His)6-HN [3]): binds
binding ((His)6-HN [4]): binds
Binder: MAPRGFSCLLLLTSEIDLPVKRRADYKDDDDK [HN-DYKDDDDK (HNFLAG)]

binding ((His)6-HN [2]): binds
Binder: MAPRGFSCLLLLTSEIDLPVKRRA [Humanin (HN), tag-free]
